The values below come from PubChem BioAssay AID2685 (National Center for Advancing Translational Sciences (NCATS), 2010).

This assay in a line: qHTS Assay for Lipid Storage Modulators in Drosophila S3 Cells.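 For cell number change: cells counted by Cell Tracker Red CMTPX staining in the red channel.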 To be noted: BODIPY lipid droplet fluorescence, 18-24 h; for cell number change: measured here: cell count max response, cells fed with added oleic acid. A digest of the protocol:
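Laser-scanning cytometry quantifies lipid droplet accumulation (500–530 nm total intensity; droplet/cell object ratio) in oleic acid-fed (400 uM added) Drosophila S3 cells treated with a concentration series. 20 uM Triacsin C defined 100% inhibition.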
On the technique in general: qHTS replaces the single test concentration by a dilution series.

Setting [1] is: measured here: cell number channel AC50, cells fed with added oleic acid.
The mark [2] stands for this setting: measured here: lipid fluorescence (Fed channel) AC50, cells fed with added oleic acid.

Some of the results follow. The main result of the screen is listed elsewhere. These columns were measured beside it and carry no call. Compounds called inactive in the main read-out are mostly missing here. The note in brackets gives the kind of curve behind each potency; many fits are weak.

The term AC50 denotes the concentration giving half of the maximal activity seen. Low values mean activity at low concentration, high ones activity only at high concentration. Take `CCC(=O)N1N=C(c2c(O)n(C)c(=O)n(C)c2=O)CC1c1ccccc1` (configuration not stated): the cell number change was -6.78%. Besides, the AC50 under setting [1] is 6.51 µM [falling, single point]. Also, the AC50 under setting [2] is 6.51 µM [falling, single point]. For `COc1ccc(Cl)cc1NC(=O)NCc1ccc2c(c1)OCO2`, the cell number change was determined as 4.86%. In the case of `CCOC(=O)CS(=O)(=O)c1ccc(O)cc1`, the cell number change was 8.25%.

Regarding `CCC(=O)NC1=C(NC(C)c2ccccc2)C(=O)c2ccccc2C1=O` (configuration not stated), the cell number change was -53.2%. Also, the AC50 under setting [1] was 16.4 µM [falling, single point]. For `N#Cc1c2n(cnc1=O)CCCCC2`, the cell number change is -76.9%. Moreover, under setting [1], the AC50 is 8.2 µM [falling, partial curve]. For the compound `Cc1ccccc1OCCC(=O)Nc1ccc(N2CCOCC2)cc1N1CCOCC1`, the cell number change is 175%. Moreover, the AC50 under setting [1] was 9.2 µM [rising, partial curve]. Consider `CC(=O)c1ccc(NC(=S)NC(NC(=O)c2ccco2)C(Cl)(Cl)Cl)cc1` (configuration not stated), for which the cell number change amounted to 7.73%. Moreover, the half-maximal activity concentration (AC50) under setting [2] is 1.64 µM [rising, partial curve, poor fit]. In the case of `Cc1ccccc1S(=O)(=O)Cc1ccc(C(=O)NCc2ccc(F)cc2)o1`, the cell number change was -0.0319%. Moreover, under setting [1], the concentration at half-maximal activity (AC50) is 6.51 µM [falling, single point].

Regarding `COc1cccc(NC(=O)C2C(c3ccccc3)C2(Cl)Cl)c1` (configuration not stated), the cell number change worked out at 9.12%. Consider `O=C(CN1CCN(c2cccc(C(F)(F)F)c2)CC1)N(C1CCCC1)C1CCS(=O)(=O)C1` (configuration not stated), for which the cell number change is -15.5%. Besides, the AC50 under setting [2] is 4.61 µM [falling, full curve, poor fit]. On to `CC1(C)CC(=O)c2cnc(NC(=O)C3CCCC3)nc2C1`, for which the cell number change was -21.5%. The AC50 under setting [1] was 2.59 µM [falling, partial curve]. Moreover, the AC50 under setting [2] was 0.366 µM [falling, full curve, poor fit]. Turning to `CCN1C(=O)CC(N2CCN(C(c3ccccc3)c3ccccc3)CC2)C1=O` (configuration not stated), the cell number change is 1.65%. As for `C/C(=N\NC(=O)C(C)Sc1ccccc1)c1ccc([N+](=O)[O-])cc1` (configuration not stated), the cell number change was -3.92%. Under setting [2], the AC50 is 0.259 µM [falling, full curve].

For the compound `COc1ccc(OC)c(Nc2nc(NCCO)c3ccccc3n2)c1`, the cell number change was -11.9%. The AC50 under setting [2] was 0.651 µM [falling, single point]. In the case of `O=C(Nc1cccc(C(F)(F)F)c1)c1ccc2nc(-c3ccco3)c(-c3ccco3)nc2c1`, the cell number change was -6.35%. Under setting [2], the AC50 is 0.58 µM [rising, single point].

In the case of `CN1CCN(S(=O)(=O)c2cccc(C(=O)N(C)Cc3cccs3)c2)CC1`, the cell number change turned out to be 0.933%. For the same compound, under setting [1], the AC50 was 0.82 µM [falling, single point]. In addition, the concentration at half-maximal activity (AC50) under setting [2] is 0.0326 µM [falling, full curve, poor fit]. As to `CC(C)OCCCNC(=O)C1CCC(=O)N1C1CCCC1` (configuration not stated), the cell number change was 0.572%. On to `CC(C)c1ccc(NC(=O)CSc2nnc(-c3ccccn3)n2C)cc1`, for which the cell number change is -15.5%. The AC50 under setting [2] was 2.91 µM [falling, full curve]. As for `CSc1ccc(S(=O)(=O)NCc2ccc(Cl)cc2Cl)cc1`, the cell number change was -48.8%. Moreover, under setting [1], the AC50 was 18.4 µM [falling, single point]. Moreover, under setting [2], the AC50 is 20.6 µM [falling, single point]. In the case of `CCOC(=O)CN(C(=O)CNC(=O)c1ccco1)C(C(=O)NC1CCCCC1)c1cccnc1` (configuration not stated), the cell number change was -33.3%. Besides, the AC50 under setting [1] is 0.13 µM [falling, full curve, poor fit]. With `CCCC1(CCC)NC(=O)N(CC(=O)c2cc(C)n(-c3ccc4c(c3)OCO4)c2C)C1=O`, the cell number change amounted to 1.62%. Also, the AC50 under setting [2] was 0.116 µM [rising, full curve, poor fit]. Turning to `CCS(=O)(=O)Nc1ccc(C(=O)CC2(O)C(=O)Nc3ccccc32)cc1` (configuration not stated), the cell number change is -174%. The AC50 under setting [1] was 29.1 µM [falling, partial curve]. Further, under setting [2], the concentration at half-maximal activity (AC50) is 23.1 µM [falling, partial curve]. `O=C(c1cc2n(n1)C(C(F)(F)F)CC(c1ccc(F)cc1)N2)N1CCCC1` (configuration not stated): the cell number change came to 13.5%.

Regarding `Cc1cccc(C(=O)NCCNC(=O)c2ccco2)c1`, the cell number change worked out at 12.4%. The same measure, in the same setting: under `CCOCCn1c(SCCc2ccccc2)nc2c1c(=O)[nH]c(=O)n2C` stands 45.6%.

Consider `O=C(COC(=O)c1ccc(Cl)c(S(=O)(=O)N2CCOCC2)c1)Nc1ccc2[nH]c(=O)[nH]c2c1`, for which the cell number change turned out to be 5.16%. Besides, the AC50 under setting [2] is 29.1 µM [rising, single point]. Consider `Cc1cc(/C(N)=N/OC(=O)c2ccc(Cl)cc2)no1`, for which the cell number change was -5%.

Consider `O=C(Nc1cccc(C(F)(F)F)c1)Nn1cnnc1`, for which the cell number change stood at 1.98%. As for `COc1ccc(NC(=O)/C(C#N)=C/c2ccc(OCc3ccccc3F)cc2)cc1`, the cell number change came to 0.856%. For the same compound, under setting [2], the AC50 is 0.116 µM [falling, full curve]. Consider `COc1ccc(-c2ccc(-c3nc4c(c(=O)[nH]c(=O)n4Cc4ccccc4)n3C)o2)c([N+](=O)[O-])c1`, for which the cell number change was 7.65%. Further, the AC50 under setting [2] was 6.51 µM [rising, single point].

For the compound `COc1ccc(S(=O)(=O)N2CCCOC2CNC(=O)C(=O)NCc2ccccc2F)cc1C` (configuration not stated), the cell number change stood at 21.8%. Further, the AC50 under setting [2] is 32.6 µM [rising, single point]. `Cc1cccc(N2CCN(S(=O)(=O)c3ccc4c(c3)C(C)(C)C(=O)N4C)CC2C)c1` (configuration not stated): the cell number change is -12.2%. Besides, under setting [2], the AC50 was 29.1 µM [falling, single point]. Consider `COc1ccc(CCN(Cc2cc3cc4c(cc3[nH]c2=O)OCO4)C(C)=O)cc1OC`, for which the cell number change is -10.4%. In addition, under setting [2], the AC50 was 0.58 µM [rising, single point]. With `CCCn1c(SCC(=O)NCc2ccccc2)n[nH]c1=O`, the cell number change was -34.9%. In addition, the AC50 under setting [1] was 0.0731 µM [falling, full curve]. Under setting [2], the AC50 is 0.092 µM [falling, full curve]. As for `Cc1coc2cc3oc(=O)c(CCC(=O)N4CCC(C(=O)O)(c5ccccc5)CC4)c(C)c3cc12`, the cell number change was 24.6%. Take `CCCS(=O)(=O)C(=C(Nc1ccc(OC)cc1)Nc1ccc(OC)cc1)S(=O)(=O)CCC`: the cell number change was -46.2%. For the same compound, the AC50 under setting [1] was 4.11 µM [falling, full curve, poor fit]. Besides, the AC50 under setting [2] was 29.1 µM [falling, single point]. For the compound `C=CCOc1ccc(/C=C2\SC(=S)N(NS(=O)(=O)c3ccc(C)cc3)C2=O)cc1`, the cell number change was -38.5%. Under setting [1], the AC50 was 16.4 µM [falling, partial curve]. Under setting [2], the AC50 was 8.2 µM [falling, partial curve]. `COC(=O)c1ccc(NC(=O)CN(c2ccc(OC)cc2)S(C)(=O)=O)cc1`: the cell number change was determined as 4.65%. Moreover, under setting [2], the AC50 is 29.1 µM [rising, single point]. On to `CC(C)C(=O)c1ccc(O)c(O)c1`, for which the cell number change was -14.5%. Besides, under setting [2], the AC50 is 0.517 µM [falling, full curve, poor fit].

As for `CC1CCCC(C)N1C(=O)COC(=O)CCc1nc2ccccc2c(=O)[nH]1` (configuration not stated), the cell number change was -66.7%. Besides, the AC50 under setting [1] is 10.3 µM [falling, partial curve]. For the compound `COc1cc(Cl)ccc1NC(=O)COc1ccccc1C(=O)NN`, the AC50 under setting [1] was 5.8 µM [rising, single point] and the AC50 under setting [2] is 6.51 µM [rising, single point].

Regarding `CC(=O)NC(CC(=O)N1CCN(C(C)=O)CC1)c1ccccc1` (configuration not stated), the cell number change turned out to be 10.4%. The AC50 under setting [2] is 8.2 µM [rising, partial curve]. In the case of `COCCOC(=O)C1=C(C)NC2=C(C(=O)CC(C)(C)C2)C1c1cc2c(cc1Br)OCO2` (configuration not stated), the cell number change came to 31.6%. For the same compound, under setting [1], the AC50 was 6.51 µM [rising, single point]. Take `Cc1ccc(CNC(=O)c2cccc3c2C(=O)c2ccc(N4CCC(C)CC4)cc2S3(=O)=O)cc1`: the cell number change was -15%. Besides, under setting [2], the AC50 is 2.31 µM [falling, single point]. For the compound `CNc1nnc(-c2ccc(C)cc2)c2ccccc12`, under setting [2], the AC50 was 6.51 µM [rising, single point]. Regarding `Cc1ccc(NC(=O)C/C(N)=N/OC(=O)Nc2ccc(C)c(Cl)c2)cc1`, the cell number change is -5.32%. In addition, under setting [2], the AC50 was 1.46 µM [falling, partial curve]. With `Cc1nc2cc3ccccc3cc2c(=O)[nH]1`, the cell number change worked out at 0.7%. For the same compound, the AC50 under setting [1] was 0.651 µM [falling, full curve, poor fit].

With `O=C(N/C(=C/c1ccco1)C(=O)N1CCOCC1)c1cccs1`, the cell number change is -41%. Besides, the AC50 under setting [1] is 29.1 µM [falling, single point]. Besides, under setting [2], the AC50 is 10.3 µM [falling, partial curve, poor fit]. On to `Cc1[nH]c2ccccc2c1/C=N/NC(=O)c1cccc([N+](=O)[O-])c1`, for which the cell number change was determined as 22.5%. Besides, the AC50 under setting [1] was 4.11 µM [rising, single point]. Moreover, the AC50 under setting [2] is 6.51 µM [rising, partial curve, poor fit]. With `CCCOc1c(Cl)cc(/C=N/O)cc1OCC`, the cell number change turned out to be 10.4%. Take `CCCCC(=O)NCc1ccc(Cl)cc1`: the cell number change stood at 46%. The AC50 under setting [2] was 29.1 µM [rising, single point]. Turning to `COc1cc(/C=C/CO)cc(OC)c1OC/C=C(\C)CCC=C(C)C`, the cell number change was -40.7%. For the same compound, under setting [1], the AC50 was 16.4 µM [falling, single point]. As to `CS(=O)(=O)N(CC(=O)N1CCCCCC1)c1cccc(Cl)c1Cl`, the cell number change is -24.1%. For the compound `O=C1COc2ccc(C(=O)COC(=O)c3c(F)cccc3Cl)cc2N1`, the cell number change is -31.3%. The AC50 under setting [1] was 2.59 µM [falling, full curve]. Further, the AC50 under setting [2] was 10.3 µM [falling, partial curve, poor fit].

For `Cc1noc(C)c1C(=O)Nc1cccc(S(=O)(=O)N2CCOCC2)c1`, the cell number change was -2.39%. On to `O=C(Nc1ccc(N2CCN(C(=O)c3ccc(Cl)cc3)CC2)cc1)c1ccc([N+](=O)[O-])o1`, for which the cell number change was -25.8%. Turning to `CCCCCCCNC(=O)C1(CC2CC(c3cccc(Br)c3)=NO2)CCN(C(=O)C2CCCC2)CC1` (configuration not stated), the cell number change is -23%. Besides, under setting [2], the AC50 is 6.51 µM [falling, single point]. `Cc1cc(=O)[nH]c(N/N=C/c2ccc(F)cc2)n1`: the cell number change is -5.67%. Further, the AC50 under setting [2] was 0.00461 µM [falling, full curve, poor fit]. With `COc1nc(N2CCOCC2)nc(C)c1[N+](=O)[O-]`, the cell number change is 55.4%. Also, the AC50 under setting [1] was 18.4 µM [rising, single point]. The AC50 under setting [2] is 29.1 µM [rising, single point]. As for `CCc1nccn1S(=O)(=O)c1ccc(Br)cc1Br`, the cell number change came to 28.5%. In addition, the AC50 under setting [1] is 3.26 µM [rising, full curve, poor fit]. The AC50 under setting [2] was 23.1 µM [falling, single point].
